According to PMC10297445:
These are yes or no findings as the source states them, for the method shown. Binding seen in cells or lysates may run through a third protein. Some results given as binding are weak or reduced against the parent protein; the word gives no strength.

Amino acid sequences for entries named in this document (tags omitted). A change or cut given only in a name is not applied to a line headed by its entry. Residues count along the entry.
UniProt Q60613: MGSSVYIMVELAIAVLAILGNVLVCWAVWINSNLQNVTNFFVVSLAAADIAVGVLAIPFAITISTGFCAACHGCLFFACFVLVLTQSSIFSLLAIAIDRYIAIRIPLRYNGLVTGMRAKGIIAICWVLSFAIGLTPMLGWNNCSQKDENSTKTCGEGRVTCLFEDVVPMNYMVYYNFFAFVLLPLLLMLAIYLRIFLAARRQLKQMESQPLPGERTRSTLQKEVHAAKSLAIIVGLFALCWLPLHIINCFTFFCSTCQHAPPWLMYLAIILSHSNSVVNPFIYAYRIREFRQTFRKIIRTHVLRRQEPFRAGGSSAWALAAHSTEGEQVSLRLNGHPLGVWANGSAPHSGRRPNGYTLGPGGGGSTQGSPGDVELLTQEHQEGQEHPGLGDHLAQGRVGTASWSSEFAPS
UniProt O15118, residues 23-1278: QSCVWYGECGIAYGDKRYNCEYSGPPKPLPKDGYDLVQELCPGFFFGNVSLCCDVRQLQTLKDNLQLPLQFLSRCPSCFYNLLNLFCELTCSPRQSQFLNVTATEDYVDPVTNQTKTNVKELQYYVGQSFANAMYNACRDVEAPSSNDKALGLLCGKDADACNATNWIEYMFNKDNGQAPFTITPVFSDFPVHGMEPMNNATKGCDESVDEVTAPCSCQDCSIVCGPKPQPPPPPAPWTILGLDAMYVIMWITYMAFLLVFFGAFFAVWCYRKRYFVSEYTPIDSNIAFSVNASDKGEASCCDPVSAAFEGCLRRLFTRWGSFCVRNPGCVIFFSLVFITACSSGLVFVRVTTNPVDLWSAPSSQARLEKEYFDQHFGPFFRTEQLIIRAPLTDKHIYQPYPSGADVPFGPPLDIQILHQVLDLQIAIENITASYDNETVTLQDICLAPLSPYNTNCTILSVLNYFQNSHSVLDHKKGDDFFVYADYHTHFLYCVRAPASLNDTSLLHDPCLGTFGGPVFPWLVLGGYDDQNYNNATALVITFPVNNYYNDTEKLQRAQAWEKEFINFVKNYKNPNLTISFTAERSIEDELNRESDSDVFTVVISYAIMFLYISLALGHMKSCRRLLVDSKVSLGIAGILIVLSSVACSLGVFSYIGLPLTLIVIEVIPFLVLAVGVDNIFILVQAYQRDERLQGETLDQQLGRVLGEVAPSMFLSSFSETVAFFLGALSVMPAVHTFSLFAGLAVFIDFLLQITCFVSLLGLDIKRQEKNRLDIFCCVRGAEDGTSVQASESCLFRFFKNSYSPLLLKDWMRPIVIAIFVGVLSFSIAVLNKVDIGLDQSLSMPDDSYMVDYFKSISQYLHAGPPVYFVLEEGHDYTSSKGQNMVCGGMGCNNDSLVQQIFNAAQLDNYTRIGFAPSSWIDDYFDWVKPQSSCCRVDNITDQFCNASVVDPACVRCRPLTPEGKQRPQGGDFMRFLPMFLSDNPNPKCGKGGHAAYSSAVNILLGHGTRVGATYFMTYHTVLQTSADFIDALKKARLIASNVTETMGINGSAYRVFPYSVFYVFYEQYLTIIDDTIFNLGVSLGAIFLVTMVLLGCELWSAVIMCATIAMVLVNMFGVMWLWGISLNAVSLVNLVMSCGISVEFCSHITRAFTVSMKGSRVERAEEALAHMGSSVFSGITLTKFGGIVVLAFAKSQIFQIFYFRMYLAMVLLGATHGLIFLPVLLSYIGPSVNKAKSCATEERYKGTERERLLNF
UniProt O35604, residues 23-1277: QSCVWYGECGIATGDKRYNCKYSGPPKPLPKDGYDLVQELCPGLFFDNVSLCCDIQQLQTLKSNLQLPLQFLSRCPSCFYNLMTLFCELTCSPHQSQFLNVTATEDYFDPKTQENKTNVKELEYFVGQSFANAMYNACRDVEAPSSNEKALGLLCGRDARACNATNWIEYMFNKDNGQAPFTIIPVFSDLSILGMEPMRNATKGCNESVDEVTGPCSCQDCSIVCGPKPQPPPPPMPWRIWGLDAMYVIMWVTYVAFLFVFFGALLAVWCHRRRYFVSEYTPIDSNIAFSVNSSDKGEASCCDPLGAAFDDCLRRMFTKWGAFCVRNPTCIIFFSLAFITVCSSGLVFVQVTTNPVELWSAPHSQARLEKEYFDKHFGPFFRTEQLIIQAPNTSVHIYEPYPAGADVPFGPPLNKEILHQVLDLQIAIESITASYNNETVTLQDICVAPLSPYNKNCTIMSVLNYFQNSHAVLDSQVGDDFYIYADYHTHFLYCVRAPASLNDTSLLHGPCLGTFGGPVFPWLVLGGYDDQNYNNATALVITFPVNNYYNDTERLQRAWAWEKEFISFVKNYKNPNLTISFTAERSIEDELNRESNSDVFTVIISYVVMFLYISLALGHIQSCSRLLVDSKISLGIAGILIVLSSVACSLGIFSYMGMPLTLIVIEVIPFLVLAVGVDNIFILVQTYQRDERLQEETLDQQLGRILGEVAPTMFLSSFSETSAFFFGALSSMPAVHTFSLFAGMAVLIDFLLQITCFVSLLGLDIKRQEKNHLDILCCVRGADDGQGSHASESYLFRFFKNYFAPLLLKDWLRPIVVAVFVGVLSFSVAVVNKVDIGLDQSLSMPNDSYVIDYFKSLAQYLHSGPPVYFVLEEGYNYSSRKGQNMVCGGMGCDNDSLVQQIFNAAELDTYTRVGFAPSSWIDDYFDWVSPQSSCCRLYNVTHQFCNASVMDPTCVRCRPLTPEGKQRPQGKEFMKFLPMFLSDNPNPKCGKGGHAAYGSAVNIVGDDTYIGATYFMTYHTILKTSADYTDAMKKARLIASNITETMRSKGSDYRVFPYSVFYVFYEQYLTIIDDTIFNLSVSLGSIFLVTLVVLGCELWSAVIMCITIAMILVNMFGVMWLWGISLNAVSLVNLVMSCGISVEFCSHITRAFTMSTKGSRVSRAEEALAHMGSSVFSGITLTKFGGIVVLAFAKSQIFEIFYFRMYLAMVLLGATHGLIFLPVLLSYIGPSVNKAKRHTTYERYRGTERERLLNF

Key:
[1] = target: Flag-A2AR^SNAP (human adenosine A2A receptor tagged with Flag and SNAP at its N-terminus) (human) (UniProt P29274); experiment: co-IP; HEK-293-Flag-A2AR^SNAP cell lysate (500 µg protein) with 8.5 µg anti-A2AR antibody or control rabbit serum, Dynabeads Protein G; western blot with anti-NPC1
[2] = target: Adenosine A2A receptor, endogenous in RAW 264.7 cells (mouse (endogenous in RAW 264.7)) (UniProt Q60613); experiment: co-IP; RAW 264.7 cell lysate (500 µg protein), endogenous proteins, with 8.5 µg anti-A2AR antibody or without antibody, Dynabeads Protein G; western blot with anti-NPC1

Q: With “Niemann–Pick C1 protein (endogenous in HEK-293 cells) (from UniProt O15118 23-1278)” as the substance, how does the binding [1] read?
A: binds

Q: How did the binding [2] turn out when “Niemann–Pick C1 protein (mouse, endogenous) (from UniProt O35604 23-1277)” was run?
A: binds
